# Data published in the supplement of paper PMC6411743.
# The chains behind the UniProt entries cited, without tags or fusion partners. Where a name states a change or a piece, a line headed by the entry shows the natural chain unless it says otherwise.
# UniProt P40306: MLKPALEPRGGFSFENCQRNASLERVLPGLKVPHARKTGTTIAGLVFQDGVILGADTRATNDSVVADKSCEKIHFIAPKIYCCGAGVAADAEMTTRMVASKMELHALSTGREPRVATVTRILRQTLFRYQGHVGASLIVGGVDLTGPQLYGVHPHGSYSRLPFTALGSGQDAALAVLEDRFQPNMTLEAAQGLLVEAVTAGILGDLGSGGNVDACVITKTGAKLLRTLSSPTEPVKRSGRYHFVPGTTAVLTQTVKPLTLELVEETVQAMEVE
# UniProt P50238: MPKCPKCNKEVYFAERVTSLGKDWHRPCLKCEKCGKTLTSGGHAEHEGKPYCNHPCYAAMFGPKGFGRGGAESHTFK
# UniProt P51828: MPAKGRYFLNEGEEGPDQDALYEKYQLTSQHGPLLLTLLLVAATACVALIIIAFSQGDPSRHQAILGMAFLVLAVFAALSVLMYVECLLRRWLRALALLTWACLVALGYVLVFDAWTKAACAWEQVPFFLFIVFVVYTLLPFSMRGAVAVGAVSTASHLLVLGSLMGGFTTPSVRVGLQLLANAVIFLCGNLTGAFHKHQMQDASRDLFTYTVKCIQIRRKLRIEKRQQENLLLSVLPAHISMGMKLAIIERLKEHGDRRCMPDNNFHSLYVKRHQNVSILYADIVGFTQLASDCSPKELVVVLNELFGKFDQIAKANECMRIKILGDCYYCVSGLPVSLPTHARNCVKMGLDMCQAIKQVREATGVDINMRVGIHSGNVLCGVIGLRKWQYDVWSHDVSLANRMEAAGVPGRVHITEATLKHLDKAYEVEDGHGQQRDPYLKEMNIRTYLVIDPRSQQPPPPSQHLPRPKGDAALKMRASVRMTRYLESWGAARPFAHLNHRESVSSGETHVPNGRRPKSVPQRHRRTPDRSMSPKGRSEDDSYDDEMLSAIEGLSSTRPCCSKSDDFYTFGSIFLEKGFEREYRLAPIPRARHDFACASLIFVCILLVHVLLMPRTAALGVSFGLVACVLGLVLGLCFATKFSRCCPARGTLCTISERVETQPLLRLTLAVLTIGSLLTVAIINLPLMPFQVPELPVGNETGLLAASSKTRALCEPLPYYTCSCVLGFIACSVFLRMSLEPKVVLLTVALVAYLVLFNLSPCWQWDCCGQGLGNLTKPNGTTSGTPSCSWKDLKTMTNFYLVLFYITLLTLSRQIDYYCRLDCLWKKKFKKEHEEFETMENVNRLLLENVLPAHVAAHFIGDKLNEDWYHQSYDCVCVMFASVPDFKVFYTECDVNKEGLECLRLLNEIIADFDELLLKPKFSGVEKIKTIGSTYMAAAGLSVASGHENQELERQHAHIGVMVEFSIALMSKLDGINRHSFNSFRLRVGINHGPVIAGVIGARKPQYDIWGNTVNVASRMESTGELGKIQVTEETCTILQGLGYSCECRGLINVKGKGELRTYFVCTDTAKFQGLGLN
# UniProt P52732: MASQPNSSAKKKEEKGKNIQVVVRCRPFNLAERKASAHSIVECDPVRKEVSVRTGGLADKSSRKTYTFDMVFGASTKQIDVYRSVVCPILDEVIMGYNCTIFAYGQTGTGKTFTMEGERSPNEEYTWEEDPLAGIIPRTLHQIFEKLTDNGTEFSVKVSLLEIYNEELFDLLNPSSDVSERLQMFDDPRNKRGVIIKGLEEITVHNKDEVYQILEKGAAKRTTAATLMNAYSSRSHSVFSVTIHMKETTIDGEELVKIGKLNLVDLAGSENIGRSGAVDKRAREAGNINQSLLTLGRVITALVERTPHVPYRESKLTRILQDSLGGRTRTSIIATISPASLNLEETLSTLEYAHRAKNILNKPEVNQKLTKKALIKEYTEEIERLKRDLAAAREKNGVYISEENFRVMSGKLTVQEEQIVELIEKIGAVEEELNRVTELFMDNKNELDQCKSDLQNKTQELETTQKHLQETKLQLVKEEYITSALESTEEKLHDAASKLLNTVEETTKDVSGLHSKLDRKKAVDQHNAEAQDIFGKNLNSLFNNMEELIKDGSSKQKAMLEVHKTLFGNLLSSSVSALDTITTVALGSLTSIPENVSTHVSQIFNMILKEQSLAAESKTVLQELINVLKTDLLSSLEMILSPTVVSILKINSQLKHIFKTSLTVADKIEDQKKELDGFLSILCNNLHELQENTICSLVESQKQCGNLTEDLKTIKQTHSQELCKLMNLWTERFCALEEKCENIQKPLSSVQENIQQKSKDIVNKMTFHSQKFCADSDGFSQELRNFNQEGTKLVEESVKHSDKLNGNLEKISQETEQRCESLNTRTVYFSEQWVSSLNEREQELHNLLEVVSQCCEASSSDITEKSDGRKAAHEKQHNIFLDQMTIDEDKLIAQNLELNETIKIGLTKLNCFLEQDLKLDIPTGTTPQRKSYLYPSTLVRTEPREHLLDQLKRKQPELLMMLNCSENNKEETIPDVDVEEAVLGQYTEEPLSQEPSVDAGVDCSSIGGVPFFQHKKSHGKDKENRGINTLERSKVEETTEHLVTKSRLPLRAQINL
# UniProt P50502: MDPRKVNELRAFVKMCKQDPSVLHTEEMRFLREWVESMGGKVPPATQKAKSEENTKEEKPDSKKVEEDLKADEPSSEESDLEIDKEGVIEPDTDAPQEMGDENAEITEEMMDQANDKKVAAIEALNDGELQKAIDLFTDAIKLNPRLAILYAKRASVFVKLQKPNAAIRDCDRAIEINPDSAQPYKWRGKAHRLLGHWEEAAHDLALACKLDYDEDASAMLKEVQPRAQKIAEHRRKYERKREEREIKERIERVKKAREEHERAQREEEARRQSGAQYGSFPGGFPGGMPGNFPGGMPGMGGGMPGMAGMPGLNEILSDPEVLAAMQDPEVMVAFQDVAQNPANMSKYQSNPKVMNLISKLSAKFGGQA
# UniProt P41250: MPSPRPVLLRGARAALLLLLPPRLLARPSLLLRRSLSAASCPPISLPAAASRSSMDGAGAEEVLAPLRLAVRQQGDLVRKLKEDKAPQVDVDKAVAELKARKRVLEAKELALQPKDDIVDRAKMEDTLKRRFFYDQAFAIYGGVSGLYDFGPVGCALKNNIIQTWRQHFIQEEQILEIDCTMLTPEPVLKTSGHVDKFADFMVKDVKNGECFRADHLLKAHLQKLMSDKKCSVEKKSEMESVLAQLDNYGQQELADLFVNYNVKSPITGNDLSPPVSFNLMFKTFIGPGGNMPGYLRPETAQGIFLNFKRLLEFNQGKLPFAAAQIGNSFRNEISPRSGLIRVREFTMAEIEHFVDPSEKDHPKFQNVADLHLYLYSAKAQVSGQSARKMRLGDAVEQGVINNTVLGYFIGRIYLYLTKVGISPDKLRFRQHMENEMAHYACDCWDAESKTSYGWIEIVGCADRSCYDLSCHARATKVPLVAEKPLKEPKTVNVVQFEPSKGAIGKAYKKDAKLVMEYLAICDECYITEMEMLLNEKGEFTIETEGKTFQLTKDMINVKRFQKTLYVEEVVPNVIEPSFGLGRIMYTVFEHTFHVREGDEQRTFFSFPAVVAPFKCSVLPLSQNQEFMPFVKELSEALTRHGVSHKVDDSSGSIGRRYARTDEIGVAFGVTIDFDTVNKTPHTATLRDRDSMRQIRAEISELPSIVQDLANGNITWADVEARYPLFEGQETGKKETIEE
# UniProt P52294, whole entry: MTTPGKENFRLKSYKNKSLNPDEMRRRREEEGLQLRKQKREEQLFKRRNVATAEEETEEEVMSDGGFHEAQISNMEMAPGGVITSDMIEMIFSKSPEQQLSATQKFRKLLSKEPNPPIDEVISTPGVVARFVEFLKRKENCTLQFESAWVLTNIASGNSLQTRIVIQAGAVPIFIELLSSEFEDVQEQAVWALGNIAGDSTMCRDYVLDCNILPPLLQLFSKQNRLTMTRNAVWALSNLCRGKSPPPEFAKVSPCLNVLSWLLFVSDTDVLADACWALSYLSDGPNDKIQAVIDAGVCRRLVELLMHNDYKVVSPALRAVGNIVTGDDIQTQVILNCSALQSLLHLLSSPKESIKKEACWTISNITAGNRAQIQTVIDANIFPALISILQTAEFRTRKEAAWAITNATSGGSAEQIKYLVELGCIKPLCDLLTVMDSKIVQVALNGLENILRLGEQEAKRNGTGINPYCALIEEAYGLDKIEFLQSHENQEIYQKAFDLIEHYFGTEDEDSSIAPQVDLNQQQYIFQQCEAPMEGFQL
# UniProt P48449: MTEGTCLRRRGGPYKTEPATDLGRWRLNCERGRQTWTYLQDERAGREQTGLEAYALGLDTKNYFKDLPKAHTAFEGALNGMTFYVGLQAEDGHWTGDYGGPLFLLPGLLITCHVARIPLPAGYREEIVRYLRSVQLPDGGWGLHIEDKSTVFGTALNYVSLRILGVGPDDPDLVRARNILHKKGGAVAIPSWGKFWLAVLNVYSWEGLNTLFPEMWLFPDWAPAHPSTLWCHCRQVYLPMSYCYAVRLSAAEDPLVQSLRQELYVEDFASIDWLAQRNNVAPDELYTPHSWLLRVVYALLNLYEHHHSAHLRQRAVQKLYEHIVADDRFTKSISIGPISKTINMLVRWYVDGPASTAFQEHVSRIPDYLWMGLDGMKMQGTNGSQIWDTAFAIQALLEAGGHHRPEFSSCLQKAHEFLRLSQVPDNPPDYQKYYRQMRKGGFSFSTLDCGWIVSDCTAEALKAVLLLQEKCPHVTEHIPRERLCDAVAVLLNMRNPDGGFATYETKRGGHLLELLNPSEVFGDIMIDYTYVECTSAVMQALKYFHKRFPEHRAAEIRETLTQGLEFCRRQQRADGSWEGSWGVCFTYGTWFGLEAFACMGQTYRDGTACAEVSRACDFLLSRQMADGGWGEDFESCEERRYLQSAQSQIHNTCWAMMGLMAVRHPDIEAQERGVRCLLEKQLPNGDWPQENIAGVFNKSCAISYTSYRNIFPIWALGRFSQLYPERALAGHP
# UniProt P47756, whole entry: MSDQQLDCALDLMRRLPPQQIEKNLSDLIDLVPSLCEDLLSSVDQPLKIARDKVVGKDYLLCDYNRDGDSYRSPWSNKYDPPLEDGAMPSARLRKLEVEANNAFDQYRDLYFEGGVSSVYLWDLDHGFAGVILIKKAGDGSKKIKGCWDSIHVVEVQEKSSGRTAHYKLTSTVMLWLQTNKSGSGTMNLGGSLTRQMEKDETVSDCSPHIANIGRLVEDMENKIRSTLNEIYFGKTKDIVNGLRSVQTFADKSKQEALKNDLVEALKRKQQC
# UniProt P41208: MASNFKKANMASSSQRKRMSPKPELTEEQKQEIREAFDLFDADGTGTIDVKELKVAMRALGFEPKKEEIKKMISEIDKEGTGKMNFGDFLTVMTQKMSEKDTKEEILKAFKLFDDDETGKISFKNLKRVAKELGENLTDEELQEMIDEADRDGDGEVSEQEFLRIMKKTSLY
# UniProt P41227: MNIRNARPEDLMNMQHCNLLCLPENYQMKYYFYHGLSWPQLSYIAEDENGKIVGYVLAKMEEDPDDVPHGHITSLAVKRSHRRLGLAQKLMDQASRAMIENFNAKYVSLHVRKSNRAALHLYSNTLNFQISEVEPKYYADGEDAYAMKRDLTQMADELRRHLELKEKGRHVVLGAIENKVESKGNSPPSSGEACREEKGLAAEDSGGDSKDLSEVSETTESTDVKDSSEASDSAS
# UniProt P51970, whole entry: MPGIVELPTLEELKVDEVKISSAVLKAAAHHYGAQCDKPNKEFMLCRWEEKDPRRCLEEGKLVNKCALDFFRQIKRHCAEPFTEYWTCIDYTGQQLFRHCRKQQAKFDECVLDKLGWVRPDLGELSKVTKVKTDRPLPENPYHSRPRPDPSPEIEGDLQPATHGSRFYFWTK
# UniProt P52565: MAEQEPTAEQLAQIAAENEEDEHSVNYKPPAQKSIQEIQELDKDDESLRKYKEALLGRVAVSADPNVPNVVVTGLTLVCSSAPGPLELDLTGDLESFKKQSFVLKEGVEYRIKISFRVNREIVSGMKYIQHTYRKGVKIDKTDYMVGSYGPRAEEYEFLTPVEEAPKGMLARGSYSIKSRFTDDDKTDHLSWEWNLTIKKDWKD
# UniProt P46063: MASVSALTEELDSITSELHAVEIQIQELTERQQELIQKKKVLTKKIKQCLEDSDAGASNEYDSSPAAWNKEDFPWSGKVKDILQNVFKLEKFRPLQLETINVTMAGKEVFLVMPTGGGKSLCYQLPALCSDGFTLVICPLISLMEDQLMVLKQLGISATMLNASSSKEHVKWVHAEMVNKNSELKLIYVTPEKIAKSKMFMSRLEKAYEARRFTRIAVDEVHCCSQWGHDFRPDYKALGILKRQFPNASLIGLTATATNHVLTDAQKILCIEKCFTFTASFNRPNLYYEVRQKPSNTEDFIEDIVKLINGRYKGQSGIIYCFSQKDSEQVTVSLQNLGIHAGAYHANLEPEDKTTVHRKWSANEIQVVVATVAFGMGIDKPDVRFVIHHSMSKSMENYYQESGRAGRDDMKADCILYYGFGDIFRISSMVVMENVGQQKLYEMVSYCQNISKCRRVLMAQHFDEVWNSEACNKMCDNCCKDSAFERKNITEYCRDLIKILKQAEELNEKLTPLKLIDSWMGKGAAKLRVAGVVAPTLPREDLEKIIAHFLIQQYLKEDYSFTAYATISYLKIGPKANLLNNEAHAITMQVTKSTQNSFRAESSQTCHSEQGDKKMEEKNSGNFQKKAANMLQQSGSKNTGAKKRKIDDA
# ± gives the standard deviation of the averaged measurements. This is a selection; strong and weak results do not stand in their true shares.
# Compound: Nc1ncnc2c1ncn2[C@@H]1O[C@H](COP(=O)(O)OP(=O)(O)OP(=O)(O)O)[C@@H](O)[C@H]1O [adenosine triphosphate]
# Experiment: NP40-soluble protein abundance relative to vehicle (solubility fold change) (ratio); higher = more soluble protein in presence of ATP
# Outline: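 Jurkat crude lysate (Dounce-homogenised) was treated with eight concentrations from 0.1 to 10 mM for 10 min at room temperature, then 3 min at 37 °C. It was solubilised with 0.8% NP40 and benzonase (60 min, 4 °C) and ultracentrifuged, and the supernatant was TMT-labelled for LC-MS/MS. Intensities were vsn-normalised, and the value is the fold change against the NP40-processed vehicle per replicate, from three independent experiments.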
Target,NP40-soluble protein abundance (concentration: 1mM),NP40-soluble protein abundance (concentration: 2mM),NP40-soluble protein abundance (concentration: 4mM),NP40-soluble protein abundance (concentration: 6mM),NP40-soluble protein abundance (concentration: 8mM),NP40-soluble protein abundance (concentration: 10mM)
PSMB10 (UniProt P40306),0.929 ± 0.022,0.9189 ± 0.0024,0.905 ± 0.023,0.934 ± 0.021,0.912 ± 0.023,0.934 ± 0.014
UniProt P49641 and related entries,0.976 ± 0.059,0.981 ± 0.048,0.959 ± 0.037,1 ± 0.12,0.974 ± 0.081,1.01 ± 0.055
UniProt P52306 and related entries,0.901 ± 0.089,0.906 ± 0.077,0.873 ± 0.078,0.873 ± 0.1,0.892 ± 0.076,0.909 ± 0.066
CRIP1 (UniProt P50238),0.97 ± 0.13,0.965 ± 0.078,0.92 ± 0.096,0.972 ± 0.082,0.944 ± 0.069,0.877 ± 0.082
ADCY7 (UniProt P51828),1.04 ± 0.043,1.05 ± 0.15,1.17 ± 0.11,1.11 ± 0.16,1.03 ± 0.096,1.08 ± 0.027
UniProt P52735 and related entries,0.952 ± 0.012,0.951 ± 0.049,0.9103 ± 0.0077,0.925 ± 0.049,0.933 ± 0.097,0.932 ± 0.05
UniProt P48047,0.95 ± 0.064,0.907 ± 0.045,0.872 ± 0.064,0.866 ± 0.084,0.881 ± 0.092,0.818 ± 0.046
CAPG (UniProt P40121),0.993 ± 0.032,0.985 ± 0.035,0.948 ± 0.033,0.994 ± 0.032,0.944 ± 0.034,0.952 ± 0.024
MAGEA9 (UniProt P43362),0.946 ± 0.12,0.964 ± 0.056,0.933 ± 0.057,0.938 ± 0.092,1.02 ± 0.16,0.949 ± 0.047
UniProt P51572 and related entries,0.927 ± 0.091,0.9028 ± 0.0085,0.942 ± 0.01,1.03 ± 0.057,0.954 ± 0.038,0.913 ± 0.074
UniProt P49754 and related entries,1.06 ± 0.029,1.04 ± 0.023,1.06 ± 0.04,0.983 ± 0.027,1.07 ± 0.035,1.03 ± 0.021
KIF11 (UniProt P52732),0.998 ± 0.021,0.993 ± 0.018,0.991 ± 0.015,0.99 ± 0.017,0.993 ± 0.022,0.97 ± 0.015
CPT1A (UniProt P50416),0.997 ± 0.096,1 ± 0.072,1.03 ± 0.052,0.954 ± 0.063,1.09 ± 0.012,1.09 ± 0.032
PAFAH1B1 (UniProt P43034),0.992 ± 0.055,1.01 ± 0.063,0.975 ± 0.03,0.96 ± 0.069,0.976 ± 0.026,0.983 ± 0.053
UniProt P42898 and related entries,1.08 ± 0.13,1.06 ± 0.08,1.05 ± 0.085,0.991 ± 0.071,1.07 ± 0.039,1.04 ± 0.094
UniProt P46020-2,0.981 ± 0.071,0.93 ± 0.023,0.898 ± 0.036,0.941 ± 0.07,0.95 ± 0.04,0.926 ± 0.025
UniProt P45984 and related entries,0.981 ± 0.083,0.9967 ± 0.0064,1 ± 0.099,0.972 ± 0.022,1.01 ± 0.083,0.956 ± 0.049
RANBP2 (UniProt P49792),1.02 ± 0.024,1.01 ± 0.036,1.03 ± 0.032,1.09 ± 0.073,1.1 ± 0.028,1.12 ± 0.043
PSMC4 (UniProt P43686),0.9744 ± 0.0054,0.92 ± 0.039,0.897 ± 0.011,0.896 ± 0.089,0.932 ± 0.056,0.903 ± 0.045
HSPA13 (UniProt P48723),1.03 ± 0.032,1.02 ± 0.039,1.07 ± 0.079,1.04 ± 0.052,1.01 ± 0.07,1.01 ± 0.068
ST13 (UniProt P50502),0.9 ± 0.11,0.885 ± 0.065,0.895 ± 0.057,1.01 ± 0.063,0.9 ± 0.012,0.855 ± 0.12
UniProt P41250,0.976 ± 0.04,0.962 ± 0.044,0.923 ± 0.043,0.948 ± 0.078,0.948 ± 0.044,0.935 ± 0.05
KPNA1 (UniProt P52294),1.1 ± 0.018,1.08 ± 0.031,1.09 ± 0.013,1.1 ± 0.015,1.12 ± 0.037,1.1 ± 0.013
LSS (UniProt P48449),1.02 ± 0.098,0.998 ± 0.086,0.973 ± 0.075,0.907 ± 0.13,0.992 ± 0.049,0.986 ± 0.06
UniProt P47756-2,0.99 ± 0.031,0.989 ± 0.0099,0.964 ± 0.022,1.01 ± 0.017,0.955 ± 0.024,0.958 ± 0.021
CETN2 (UniProt P41208),0.833 ± 0.2,0.864 ± 0.16,0.853 ± 0.14,0.857 ± 0.19,0.816 ± 0.1,0.767 ± 0.17
UniProt P41227,1.01 ± 0.064,0.971 ± 0.035,0.971 ± 0.065,1.01 ± 0.065,0.948 ± 0.051,0.973 ± 0.025
NDUFA8 (UniProt P51970),0.987 ± 0.067,0.941 ± 0.04,0.938 ± 0.041,0.941 ± 0.069,0.992 ± 0.04,0.918 ± 0.064
ARHGDIA (UniProt P52565),0.919 ± 0.05,0.9232 ± 0.005,0.881 ± 0.028,0.94 ± 0.05,0.904 ± 0.04,0.915 ± 0.048
RECQL (UniProt P46063),1.01 ± 0.12,1.01 ± 0.09,0.976 ± 0.075,0.939 ± 0.12,0.977 ± 0.044,0.993 ± 0.062

# Some entries already given, limited to NP40-soluble protein abundance (concentration: 10mM):
Target	NP40-soluble protein abundance (concentration: 10mM)
PSMB10 (UniProt P40306)	0.934 ± 0.014
UniProt P49641 and related entries	1.01 ± 0.055
